Experimental data from publication PMC8546699, “Ehrlichia chaffeensis TRP120 Is a Wnt Ligand Mimetic That Interacts with Wnt Receptors and Contains a Novel Repetitive Short Linear Motif That Activates Wnt Signaling” (mSphere, 2021).
No constants are given. Whether binding was seen depends on the method and setting. Binding seen in cells or lysates may run through a third protein. Some binding calls cover weakened binding; strength is not graded here.

Chains of the proteins cited; added tags and fusions are not shown. Residues count along the entry.
UniProt Q2GI62: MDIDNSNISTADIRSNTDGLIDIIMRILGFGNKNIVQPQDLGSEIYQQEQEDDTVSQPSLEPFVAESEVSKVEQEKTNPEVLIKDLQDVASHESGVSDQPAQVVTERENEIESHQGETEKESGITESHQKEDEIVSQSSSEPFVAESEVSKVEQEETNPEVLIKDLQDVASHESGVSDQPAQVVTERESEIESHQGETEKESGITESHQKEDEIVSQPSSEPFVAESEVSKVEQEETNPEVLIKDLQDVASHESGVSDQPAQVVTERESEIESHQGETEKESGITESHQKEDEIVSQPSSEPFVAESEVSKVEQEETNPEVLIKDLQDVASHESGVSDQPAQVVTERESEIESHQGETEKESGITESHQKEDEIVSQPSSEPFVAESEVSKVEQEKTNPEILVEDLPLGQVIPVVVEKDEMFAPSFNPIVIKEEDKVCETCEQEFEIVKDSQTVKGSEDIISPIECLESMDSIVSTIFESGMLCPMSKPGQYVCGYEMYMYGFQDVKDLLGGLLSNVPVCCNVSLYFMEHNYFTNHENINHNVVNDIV
UniProt Q13467, residues 27-585: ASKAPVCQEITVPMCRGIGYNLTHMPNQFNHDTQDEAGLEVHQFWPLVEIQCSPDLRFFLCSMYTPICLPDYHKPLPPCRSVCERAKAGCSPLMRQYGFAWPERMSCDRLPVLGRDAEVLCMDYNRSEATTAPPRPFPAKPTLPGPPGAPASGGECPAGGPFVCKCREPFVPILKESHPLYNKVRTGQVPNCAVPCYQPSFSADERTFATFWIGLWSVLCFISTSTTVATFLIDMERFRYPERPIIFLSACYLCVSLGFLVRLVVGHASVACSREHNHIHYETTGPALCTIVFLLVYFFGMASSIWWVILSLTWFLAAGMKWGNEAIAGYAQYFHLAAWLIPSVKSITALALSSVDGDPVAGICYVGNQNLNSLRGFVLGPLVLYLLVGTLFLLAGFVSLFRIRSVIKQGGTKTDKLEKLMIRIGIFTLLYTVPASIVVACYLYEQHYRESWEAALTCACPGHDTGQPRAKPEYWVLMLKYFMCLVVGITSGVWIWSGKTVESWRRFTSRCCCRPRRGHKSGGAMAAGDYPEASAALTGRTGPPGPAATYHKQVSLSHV
UniProt Q9H461, residues 28-694: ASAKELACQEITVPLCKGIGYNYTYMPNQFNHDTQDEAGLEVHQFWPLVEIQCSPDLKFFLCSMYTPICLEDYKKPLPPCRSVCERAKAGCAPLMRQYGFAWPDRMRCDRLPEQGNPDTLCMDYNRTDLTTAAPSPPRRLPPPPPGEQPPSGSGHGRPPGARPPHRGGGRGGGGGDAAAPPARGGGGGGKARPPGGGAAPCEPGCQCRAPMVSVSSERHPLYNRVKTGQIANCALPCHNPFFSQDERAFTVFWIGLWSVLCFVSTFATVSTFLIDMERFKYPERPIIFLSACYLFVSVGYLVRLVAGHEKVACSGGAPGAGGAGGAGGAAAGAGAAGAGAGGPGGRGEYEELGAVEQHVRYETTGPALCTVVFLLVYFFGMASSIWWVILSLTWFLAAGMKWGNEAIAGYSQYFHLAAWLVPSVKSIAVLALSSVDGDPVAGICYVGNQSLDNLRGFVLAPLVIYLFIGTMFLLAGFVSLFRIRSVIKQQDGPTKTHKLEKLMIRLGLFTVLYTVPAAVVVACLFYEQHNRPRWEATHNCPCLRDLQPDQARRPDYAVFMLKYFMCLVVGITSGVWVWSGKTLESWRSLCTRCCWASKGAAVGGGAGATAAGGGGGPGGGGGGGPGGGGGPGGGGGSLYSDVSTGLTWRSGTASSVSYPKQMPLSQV

Molecular target: TRP120 (from E. chaffeensis in infected THP-1 cells) (Ehrlichia chaffeensis) (UniProt Q2GI62)
Assay: co-IP; lysate of E. chaffeensis-infected THP-1 cells 70 hpi; TRP120 precipitated with immobilised rabbit α-TRP120-I1 (Pierce co-IP kit); eluates blotted for Fzd5 and Fzd8

| Substance | binding |
| --- | --- |
| Fzd5 (endogenous, THP-1 cells) (from UniProt Q13467 27-585) (receptor) | binds |
| Fzd8 (endogenous, THP-1 cells) (from UniProt Q9H461 28-694) (receptor) | no binding |
